PubChem BioAssay AID1259308 – NCATS | 2017
The whole screen tested about 59,000 reagents; below is a part drawn at random. About 1,510 of them (2.6%) were called active. 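Calls use total luciferase alone and ignore viability, so some active siRNAs may act by altering cell number.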 The numbers tell different reagents against one gene apart. Further read-outs or replicates are left out here. No sequences are given here.

Test: 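Candidate targets for better recombinant protein yield in mammalian cells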 (primary screen)
System: human HEK293 embryonic kidney cells stably expressing firefly luciferase (HEK-CMV-Luc2-Hygro)
Reagents: single siRNA against human genes, 0.8 pmol siRNA per well
Time to read-out: 72 h
Read-out: 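Luciferase light (ONE-Glo) measured on one replicate plate set and viability (CellTiter-Glo) on the other, scaled to a negative control siRNA, with robust z-scores and luciferase per cell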
Reading the numbers: total luciferase, z-score: higher = more reporter protein produced
Call rule: 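An siRNA counts as active if its total luciferase robust z-score exceeds 3; genes with two or more such siRNAs out of three were retested with fresh siRNAs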
Meaning of the calls: active = raised luciferase; inactive = no rise

SPTA1 (spectrin alpha, erythrocytic 1) #1 — total luciferase, z-score: 0.368; activity call: inactive
SPTA1 (spectrin alpha, erythrocytic 1) #2 — total luciferase, z-score: 1.25; activity call: inactive
SPTA1 (spectrin alpha, erythrocytic 1) #3 — total luciferase, z-score: -0.759; activity call: inactive
DSE (dermatan sulfate epimerase) #1 — total luciferase, z-score: 3.37; activity call: active
DSE (dermatan sulfate epimerase) #2 — total luciferase, z-score: 0.128; activity call: inactive
DSE (dermatan sulfate epimerase) #3 — total luciferase, z-score: -1.36; activity call: inactive
CTSE (cathepsin E) #1 — total luciferase, z-score: 1.69; activity call: inactive
CTSE (cathepsin E) #2 — total luciferase, z-score: 4.12; activity call: active
CTSE (cathepsin E) #3 — total luciferase, z-score: -0.215; activity call: inactive
ANKRD36B (ankyrin repeat domain 36B) #1 — total luciferase, z-score: 0.606; activity call: inactive
ANKRD36B (ankyrin repeat domain 36B) #2 — total luciferase, z-score: 0.618; activity call: inactive
ANKRD36B (ankyrin repeat domain 36B) #3 — total luciferase, z-score: 1.03; activity call: inactive
PAGR1 (PAXIP1 associated glutamate rich protein 1) #1 — total luciferase, z-score: -1.19; activity call: inactive
PAGR1 (PAXIP1 associated glutamate rich protein 1) #2 — total luciferase, z-score: 2.69; activity call: inactive
PAGR1 (PAXIP1 associated glutamate rich protein 1) #3 — total luciferase, z-score: -1.12; activity call: inactive
CCL3 (C-C motif chemokine ligand 3) #1 — total luciferase, z-score: -0.914; activity call: inactive
CCL3 (C-C motif chemokine ligand 3) #2 — total luciferase, z-score: 0.553; activity call: inactive
CCL3 (C-C motif chemokine ligand 3) #3 — total luciferase, z-score: -0.0332; activity call: inactive
HERC2P3 (HERC2 pseudogene 3) #1 — total luciferase, z-score: -0.762; activity call: inactive
HERC2P3 (HERC2 pseudogene 3) #2 — total luciferase, z-score: -0.891; activity call: inactive
HERC2P3 (HERC2 pseudogene 3) #3 — total luciferase, z-score: -0.0444; activity call: inactive
ZNF475 (zinc finger protein 475) #1 — total luciferase, z-score: 1.24; activity call: inactive
ZNF475 (zinc finger protein 475) #2 — total luciferase, z-score: -1.22; activity call: inactive
ZNF475 (zinc finger protein 475) #3 — total luciferase, z-score: -0.83; activity call: inactive
PPP1R3E (protein phosphatase 1 regulatory subunit 3E) #1 — total luciferase, z-score: 0.959; activity call: inactive
PPP1R3E (protein phosphatase 1 regulatory subunit 3E) #2 — total luciferase, z-score: -1.13; activity call: inactive
PPP1R3E (protein phosphatase 1 regulatory subunit 3E) #3 — total luciferase, z-score: -1.15; activity call: inactive
DHODH (dihydroorotate dehydrogenase (quinone)) #1 — total luciferase, z-score: 2.31; activity call: inactive
DHODH (dihydroorotate dehydrogenase (quinone)) #2 — total luciferase, z-score: -1.5; activity call: inactive
DHODH (dihydroorotate dehydrogenase (quinone)) #3 — total luciferase, z-score: 0.143; activity call: inactive
RAB33A (RAB33A, member RAS oncogene family) #1 — total luciferase, z-score: -1.26; activity call: inactive
RAB33A (RAB33A, member RAS oncogene family) #2 — total luciferase, z-score: -1.03; activity call: inactive
RAB33A (RAB33A, member RAS oncogene family) #3 — total luciferase, z-score: 3.37; activity call: active
